# Hit rate of the full screen: of about 140,000 compounds, about 4,300 (3.1%) were called active. Inconclusive results, whose numbers are uncertain, are shown with a selection of clear calls.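 The calls were made as follows: active = readout at or below -70, meaning at least 70% loss of cells showing the perinucleolar compartment, a nuclear body marking cancer cells; inconclusive = readout between -30 and a set limit; inactive = the rest.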
# Test: High Content Assay for Compounds that inhibit the Assembly of the Perinucleolar Compartment;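 also: plate controls were DMSO wells for no effect and camptothecin positive control wells for full effect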
# Details: PC3M PTB-GFP, PNC prevalence imaging, 16 h; at 10 µM; hits give low values
# Summary of the method: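 Read-out is percentage of cells bearing a perinucleolar compartment, from automated 20x imaging of fixed, Hoechst-stained PC3M PTB-GFP cells. Cells were seeded 4 h, then exposed 16 h to compound (23 nl of library stock) in duplicate plates.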
row,Compound,"activity change (PNC), negative = inhibition"
1,O=C(CSc1nc(Nc2ccccc2)nc(N2CCOCC2)n1)Nc1ccc([N+](=O)[O-])cc1,inconclusive: -36.6%
2,CCn1c(/C=C/N(C(C)=O)c2ccccc2)[n+](CC)c2ccc(Cl)cc21,inconclusive: -40.4%
3,C=CCn1c(-c2ccc([N+](=O)[O-])cc2)n[nH]c1=S,inconclusive: -61.5%
4,CC1CCN(C(=O)CCCNC(=O)Cn2cnc3sc4c(c3c2=O)CCCC4)CC1,inconclusive: -47.5%
5,S=c1[nH]nc(-c2ccc(Br)cc2)n1Cc1ccco1,inconclusive: -38.1%
6,CNC(=S)N/N=C/C1=CCC2CC1C2(C)C (stereo not given),inconclusive: -32.9%
7,c1ccc(Nc2nc(N3CCOCC3)c3ccccc3n2)cc1,inconclusive: -32.1%
8,O=C(O)CCC(=O)Nc1ccc(N2CCCCCC2)cc1,inactive: 16.4%
9,COc1ccccc1OCC(=O)OC/C(O)=C(\C#N)c1nc2ccccc2[nH]1,inactive: -18.5%
10,CC(C)OCC(O)CCc1n[nH]c(=S)n1-c1ccccc1 (stereo not given),inactive: 43.7%
11,COCCn1c(SCC(=O)Nc2cc(Cl)ccc2OC)nc2c(c1=O)SC(C)C2 (stereo not given),inconclusive: -53.3%
12,CCCn1c(=O)c2ccccc2n2c(SCc3nc4ccccc4s3)nnc12,inconclusive: -58.1%
13,O=C(COc1ccccc1Br)c1ccc(O)cc1O,inconclusive: -32.7%
14,COc1ccc(-c2noc(CCC(=O)NC3CCN(Cc4ccccc4)CC3)n2)cc1,inconclusive: -66.2%
15,Cc1ccccc1C(=O)c1c[nH]c(C(=O)NCCCn2ccnc2)c1,inconclusive: -57.3%
16,C=CCn1c(NC(=O)c2ccco2)c(S(=O)(=O)c2ccccc2)c2nc3ccccc3nc21,inconclusive: -39.8%
17,CSc1ccc(N2CCN(CCCNC(=O)Nc3ccccc3F)CC2)cc1,inconclusive: -53.5%
18,O=C(CSc1nnc(-c2csc3c2CCCC3)o1)Nc1ccccc1,inactive: -27.6%
19,Cc1ccc(S(=O)(=O)Nc2ccc(-c3nnc(SCC#N)n3C)cc2)cc1,inactive: -8.9%
20,O=C(c1ccccc1-c1nc(-c2ccccc2)no1)N1CCOCC1,inconclusive: -36.5%
21,c1ccc(Cn2c(Sc3nnnn3-c3ccccc3)nnc2-c2ccccc2)cc1,inconclusive: -44.4%
22,O=C1CC(Nc2ccc(N3CCOCC3)cc2)C(=O)N1c1ccccc1 (stereo not given),inactive: 10.6%
23,c1ccc(N2CCN(c3cnccn3)CC2)nc1,inactive: 13.5%

row,Compound,"activity change (PNC), negative = inhibition"
1,CCCN1C(=O)c2ccccc2NC1c1ccc(OC)cc1O (stereo not given),inconclusive: -74%
2,COc1ccc(S(=O)(=O)N(C)CC(=O)NC2CCCCC2)cc1Cl,inconclusive: -49.3%
3,Cc1cccc(OCCCC(=O)O)c1C,inconclusive: -32.6%
4,COc1cc(C(=O)N2CCC(C(=O)Nc3cccc(C(C)=O)c3)CC2)cc(OC)c1OC,inconclusive: -55%
5,O=C(NC1CCCC1)C(c1cccs1)N(Cc1ccco1)C(=O)c1csnn1 (stereo not given),inconclusive: -30.2%
6,CCNC(=S)NNC(=O)c1cccn(Cc2ccc(Cl)cc2Cl)c1=O,inactive: -21.5%
7,CC(=O)NC(C)C(c1cccs1)N1CCN(c2ccccc2)CC1 (stereo not given),inconclusive: -64.5%
8,COc1ccc(S(=O)(=O)N2Cc3ccccc3CC2C(=O)O)cc1 (stereo not given),inconclusive: -60.7%
9,CC(C)CCNC(=O)Cn1c(=O)oc2cc(S(=O)(=O)N3CC(C)CC(C)C3)ccc21 (stereo not given),inconclusive: -59.8%
10,Cc1ccc(/C=C(/C#N)C(=O)NC(=O)Oc2ccccc2)cc1,active: -101%
11,CC(C)(C)C1(c2ccccc2)NC(=O)N(CC(=O)N2CCOCC2)C1=O (stereo not given),inactive: -17.2%
12,NC(=S)N/N=C\c1ccc(-c2cccc(Cl)c2Cl)o1,inactive: 9.78%
13,COc1cc(/C=C2\SC(=S)N(Nc3ccccc3)C2=O)cc(OC)c1OC,inactive: -2.57%
14,CN(C(=O)c1ccncc1)c1nnc(-c2ccncc2)s1,inconclusive: -51.9%
15,Cn1c(=O)n(-c2cccc(Cl)c2)c(=O)n1C,inconclusive: -50.4%
16,CCCc1cc(=O)[nH]c(SCc2csc(-c3ccccc3)n2)n1,inconclusive: -60.6%
17,CCOC(=O)c1ccc2nc(Nc3nc4ccc(F)cc4s3)sc2c1,active: -107%
18,CCOc1cc(NC(=O)C2CCCO2)c(OCC)cc1NC(C)=O (stereo not given),active: -94.5%
19,COc1ccc2c(c1)c1ccccc1n2C,inconclusive: -35.3%
20,Cc1oc(-c2ccccc2Cl)cc1-c1nn2c(-c3ccco3)nnc2s1,inconclusive: -44%
21,Cn1c(=O)[nH]c(Nc2ccc(F)cc2)c([N+](=O)[O-])c1=O,active: -109%
22,COc1ccc(COC(=O)Nc2cc3c(C(F)(F)F)nn(C)c3s2)cc1,inconclusive: -43.7%

# Quoted from the listing.
# Entry of `NC(=S)N/N=C\c1ccc(-c2cccc(Cl)c2Cl)o1` under activity change (PNC), negative = inhibition: inactive: 9.78%
# Entry of `Cn1c(=O)[nH]c(Nc2ccc(F)cc2)c([N+](=O)[O-])c1=O` under activity change (PNC), negative = inhibition: active: -109%

# Reference: PubChem BioAssay AID2417 (National Center for Advancing Translational Sciences (NCATS), 2010)
